Taken from: PubChem BioAssay AID1259405 (NCATS, 2018)

- Purpose: 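Knock-downs that lift recombinant protein yield in hamster ovary cells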 (primary screen)
- System: Chinese hamster CHO-K1 ovary cells with stable secreted eGFP expression
- Reagent: single siRNA against mouse genes, 0.8 pmol siRNA per well (2 µl of 400 nM stock)
- Time to read-out: 3 days
- Detection: 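Per-well intracellular GFP measured by laser scanning cytometry, plus viability from ATP luminescence, each relative to plate median of non-targeting control wells, in %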
- Reading the numbers: GFP, % of control: higher = more GFP per well, higher productivity; viability (ATP), % of control: higher = more viable cells (more ATP)
- Hit rule: 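Called active when intracellular GFP, relative to negative control, is at or above 120%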
This is a random part of about 50,000 deposited reagents. About 4,000 of all reagents (8%) were called active. 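Mouse siRNA library applied to hamster cells; one well for each siRNA.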 A number with no mark means an inactive call. Reagents against one gene are numbered here.

For Dnase1l1 #1, the values are GFP, % of control 169 (active); viability (ATP), % of control 74.3.
Dnase1l1 #2 gave GFP, % of control 67.1; viability (ATP), % of control 79.1.
Dnase1l1 #3 scored GFP, % of control 122 (active); viability (ATP), % of control 69.8.
For Top3b #1, the values are GFP, % of control 101; viability (ATP), % of control 99.4.
Against Top3b #2, the entry reads GFP, % of control 74.2; viability (ATP), % of control 90.7.
After knock-down of Rarres2 #1 the results were GFP, % of control 63; viability (ATP), % of control 63.6.
For Rarres2 #2 the deposit lists GFP, % of control 130 (active); viability (ATP), % of control 91.9.
With knock-down of Gfpt2 #1 the results were GFP, % of control 122 (active); viability (ATP), % of control 102.
For Gfpt2 #2, the values are GFP, % of control 108; viability (ATP), % of control 170.
Against Gfpt2 #3, the entry reads GFP, % of control 99; viability (ATP), % of control 87.3.
After knock-down of Actr10 #1 the results were GFP, % of control 82.4; viability (ATP), % of control 92.
Actr10 #2 showed GFP, % of control 68.5; viability (ATP), % of control 77.1.
For 1810009A15Rik #1, the entry reads GFP, % of control 75.3; viability (ATP), % of control 100.
1810009A15Rik #2 scored GFP, % of control 53.4; viability (ATP), % of control 50.5.
After knock-down of 1810009A15Rik #3, the record shows GFP, % of control 64.4; viability (ATP), % of control 63.9.
Against Fes the deposit lists GFP, % of control 75.6; viability (ATP), % of control 75.5.
Depletion of Tmbim7 #1 came out at: GFP, % of control 29.3; viability (ATP), % of control 108.
Tmbim7 #2 scored GFP, % of control 76.7; viability (ATP), % of control 72.1.
With knock-down of Tmbim7 #3, the screen gave GFP, % of control 60.5; viability (ATP), % of control 63.1.

Part of the list above, showing only “GFP, % of control”:
Top3b #2: 74.2
Rarres2 #1: 63

More results:
Against Ccl26 #1 the deposit lists GFP, % of control 51.8; viability (ATP), % of control 56.1.
With knock-down of Ccl26 #2, the screen gave GFP, % of control 38.6; viability (ATP), % of control 31.
Ccl26 #3 gave GFP, % of control 100; viability (ATP), % of control 72.6.
Knock-down of Adora2b #1 resulted in: GFP, % of control 79.9; viability (ATP), % of control 71.4.
After knock-down of Adora2b #2 the results were GFP, % of control 74.9; viability (ATP), % of control 78.1.
Silencing of Adora2b #3 came out at: GFP, % of control 69.4; viability (ATP), % of control 64.6.
Knock-down of Klf16 #1 came out at: GFP, % of control 60.3; viability (ATP), % of control 78.2.
For Klf16 #2 the deposit lists GFP, % of control 91.9; viability (ATP), % of control 73.8.
Knock-down of Klf16 #3 came out at: GFP, % of control 95.6; viability (ATP), % of control 108.
Silencing of Krtap19-9b #1 came out at: GFP, % of control 88.2; viability (ATP), % of control 88.4.
Knock-down of Krtap19-9b #2 gave: GFP, % of control 61.4; viability (ATP), % of control 70.1.
Krtap19-9b #3 scored GFP, % of control 90.7; viability (ATP), % of control 82.1.
Depletion of Pramel3a #1 gave: GFP, % of control 76.8; viability (ATP), % of control 85.1.
Knock-down of Pramel3a #2 resulted in: GFP, % of control 94.7; viability (ATP), % of control 74.1.
Against Pramel3a #3, the values are GFP, % of control 93.6; viability (ATP), % of control 154.
Against Or10q3 #1, the entry reads GFP, % of control 130 (active); viability (ATP), % of control 60.3.
Silencing of Or10q3 #2 resulted in: GFP, % of control 103; viability (ATP), % of control 96.
Or10q3 #3 scored GFP, % of control 73.4; viability (ATP), % of control 73.5.
With knock-down of Hebp2 #1, the screen gave GFP, % of control 71.3; viability (ATP), % of control 74.7.
Depletion of Hebp2 #2 gave: GFP, % of control 34.6; viability (ATP), % of control 44.2.
After knock-down of Hebp2 #3 the results were GFP, % of control 76.1; viability (ATP), % of control 46.4.
